Source: publication PMC9987799
No constants are given. Whether binding was seen depends on the method and setting. For some of these results: Binding can be weak; no strength is given. For some of these results: Tags and fused reporters may be left off the sequences shown. For some of these results: Binding seen in cells or lysates may run through a third protein.

B1: CCHCR1-Myc (protein, UniProt Q8TD31 1-782)
chain: MFPPSGSTGLIPPSHFQARPLSTLPRMAPTWLSDIPLVQPPGHQDVSERRLDTQRPQVTMWERDVSSDRQEPGRRGRSWGLEGSQALSQQAEVIVRQLQELRRLEEEVRLLRETSLQQKMRLEAQAMELEALARAEKAGRAEAEGLRAALAGAEVVRKNLEEGSQRELEEVQRLHQEQLSSLTQAHEEALSSLTSKAEGLEKSLSSLETRRAGEAKELAEAQREAELLRKQLSKTQEDLEAQVTLVENLRKYVGEQVPSEVHSQTWELERQKLLETMQHLQEDRDSLHATAELLQVRVQSLTHILALQEEELTRKVQPSDSLEPEFTRKCQSLLNRWREKVFALMVQLKAQELEHSDSVKQLKGQVASLQEKVTSQSQEQAILQRSLQDKAAEVEVERMGAKGLQLELSRAQEARRRWQQQTASAEEQLRLVVNAVSSSQIWLETTMAKVEGAAAQLPSLNNRLSYAVRKVHTIRGLIARKLALAQLRQESCPLPPPVTDVSLELQQLREERNRLDAELQLSARLIQQEVGRAREQGEAERQQLSKVAQQLEQELQQTQESLASLGLQLEVARQGQQESTEEAASLRQELTQQQELYGQALQEKVAEVETRLREQLSDTERRLNEARREHAKAVVSLRQIQRRAAQEKERSQELRRLQEEARKEEGQRLARRLQELERDKNLMLATLQQEGLLSRYKQQRLLTVLPSLLDKKKSVVSSPRPPECSASAPVAAAVPTRESIKGSLSVLLDDLQDLSEAISKEEAVCQGDNLDRCSSSNPQMSS
B2: mCh-XRN1(1232–1706) (domain or fragment, UniProt Q8IZH2 1232-1706)
chain: EFCNIWQSLQGSGKMQYFQPTIQEKGAVLPQEISQVNQHHKSGFNDNSVKYQQRKHDPHRKFKEECKSPKAECWSQKMSNKQPNSGIENFLASLNISKENEVQSSHHGEPPSEEHLSPQSFAMGTRMLKEILKIDGSNTVDHKNEIKQIANEIPVSSNRRDEYGLPSQPKQNKKLASYMNKPHSANEYHNVQSMDNMCWPAPSQIPPVSTPVTELSRICSLVGMPQPDFSFLRMPQTMTVCQVKLSNGLLVHGPQCHSENEAKEKAALFALQQLGSLGMNFPLPSQVFANYPSAVPPGTIPPAFPPPTGWDHYGSNYALGAANIMPSSSHLFGSMPWGPSVPVPGKPFHHTLYSGTMPMAGGIPGGVHNQFIPLQVTKKRVANKKNFENKEAQSSQATPVQTSQPDSSNIVKVSPRESSSASLKSSPIAQPASSFQVETASQGHSISHHKSTPISSSRRKSRKLAVNFGVSKPSE
B3: Myc-PATL1(398–770) (domain or fragment, UniProt Q86TB9 398-770)
chain: KDPYANLMLQREKDWVSKIQMMQLQSTDPYLDDFYYQNYFEKLEKLSAAEEIQGDGPKKERTKLITPQVAKLEHAYKPVQFEGSLGKLTVSSVNNPRKMIDAVVTSRSEDDETKEKQVRDKRRKTLVIIEKTYSLLLDVEDYERRYLLSLEEERPALMDDRKHKICSMYDNLRGKLPGQERPSDDHFVQIMCIRKGKRMVARILPFLSTEQAADILMTTARNLPFLIKKDAQDEVLPCLLSPFSLLLYHLPSVSITSLLRQLMNLPQSAATPALSNPHLTAVLQNKFGLSLLLILLSRGEDLQSSDPATESTQNNQWTEVMFMATRELLRIPQAALAKPISIPTNLVSLFSRYVDRQKLNLLETKLQLVQGIR

Assays:
GFP-NLS-EDC4(630–1437) = experiment: two-hybrid; fluorescence-based mammalian two-hybrid: bait EDC4 (or a fragment) fused to the SV40 NLS forms nuclear dots in transfected HEp-2 cells; prey scored by immunofluorescence for co-localisation in nuclear dots 24 h after transfection; three transfections, at least 30 cells each, mean +/- …
GFP-EDC4 = experiment: co-IP; HEK293 cells transfected; lysis in 25 mM Tris-HCl pH 7.4, 150 mM NaCl, 1 mM EDTA, 1% NP-40, 5% glycerol; GFP fusion proteins precipitated with GFP-Trap magnetic agarose; blot with anti-mCh
GFP-EDC4(630–1437) = experiment: as above

Binder	binding (GFP-NLS-EDC4(630–1437))	binding (GFP-EDC4)	binding (GFP-EDC4(630–1437))
B1	binds	–	–
B2	–	binds	no binding
B3	no binding	–	–
